# According to the supplement of paper PMC4604168 (melanoma cell lines):
# This is one part of the list. Single values are uncertain, as repeats are few or missing.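 Imaging used 1,536-well plates; nuclei positive for cleaved PARP by antibody were divided by total DNA-stained nuclei to yield the apoptosis fraction. Doses for screening kept most cells viable, and cell lines differ markedly in resting and induced cleaved-PARP levels.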
# What was measured:
# Experiment in all cases: cleaved PARP positive nuclei fraction relative to DMSO control; melanoma cells; higher = more apoptosis
# Settings in all cases: library dose: low library concentration; 72 h
# [1] = system: CBRC034 (line from a melanoma biopsy)
# [2] = system: COLO792
# [3] = system: COLO800
# [4] = system: COLO829
# [5] = system: G361
# [6] = system: IPC-298
# [7] = system: IST-MEL1
# [8] = system: LB2518-MEL
# [9] = system: LOXIMVI
Compound,cleaved PARP positive nuclei fraction [1],cleaved PARP positive nuclei fraction [2],cleaved PARP positive nuclei fraction [3],cleaved PARP positive nuclei fraction [4],cleaved PARP positive nuclei fraction [5],cleaved PARP positive nuclei fraction [6],cleaved PARP positive nuclei fraction [7],cleaved PARP positive nuclei fraction [8],cleaved PARP positive nuclei fraction [9]
"C/C(O)=C(\C#N)C(=O)Nc1cc(Br)ccc1Br + COc1cc(N2CCC(N3CCN(C)CC3)CC2)ccc1Nc1ncc(Cl)c(Nc2ccccc2S(=O)(=O)C(C)C)n1 [NVP-TAE684] (first compound 2 µM, partner dose 0.08 µM)",82.7%,71.2%,87.8%,124%,111%,80.6%,89.3%,95.2%,70.7%
"O=C(Nc1cccc(Cl)c1)Nc1ncc(CCNc2ncnc3ccsc23)s1 + O=C(Oc1ccc([N+](=O)[O-])cc1)N1CCC(C(O)(c2ccc3c(c2)OCO3)c2ccc3c(c2)OCO3)CC1 [JZL184] (first compound 0.0008 µM, partner dose 1 µM)",80.5%,85.2%,197%,56.6%,190%,95.9%,28.5%,86.3%,129%
"COCC[n+]1c2c(n(Cc3cnccn3)c1C)C(=O)c1ccccc1C2=O + Cc1cc(SCc2sc(-c3ccc(C(F)(F)F)c(F)c3)nc2C)ccc1OCC(=O)O [GW0742] (first compound 0.0004 µM, partner dose 2 µM)",89.8%,98.5%,87.8%,90.2%,29.1%,169%,156%,152%,34.6%
"CC(C)(C)c1cnc(CSc2cnc(NC(=O)C3CCNCC3)s2)o1 + Cc1cc(SCc2sc(-c3ccc(C(F)(F)F)c(F)c3)nc2C)ccc1OCC(=O)O [GW0742] (first compound 0.01 µM, partner dose 2 µM)",76.5%,158%,112%,115%,68.8%,61.2%,69.9%,179%,56.2%
"CO[C@@H]1[C@H](N(C)C(=O)c2ccccc2)C[C@H]2O[C@]1(C)n1c3ccccc3c3c4c(c5c6ccccc6n2c5c31)C(=O)NC4 [Midostaurin] + C/C(O)=C(\C#N)C(=O)Nc1cc(Br)ccc1Br [LFM-A13] (first compound 0.08 µM, partner dose 2 µM)",96%,236%,218%,94.4%,180%,215%,92.6%,148%,20.4%
"C#Cc1cccc(Nc2ncnc3cc(OCCOC)c(OCCOC)cc23)c1 [erlotinib] + C/C(O)=C(\C#N)C(=O)Nc1cc(Br)ccc1Br [LFM-A13] (first compound 0.8 µM, partner dose 2 µM)",167%,78.1%,167%,94.1%,102%,131%,88.6%,87.3%,66.4%
"C[As](C)SC[C@H](NC(=O)CC[C@H](N)C(=O)O)C(=O)NCC(=O)O [Darinaparsin] + N#Cc1c(O)c2c(-c3ccc(-c4ccccc4O)cc3)csc2[nH]c1=O [A769662] (first compound 0.4 µM, partner dose 2 µM)",90.3%,136%,78%,156%,58.8%,106%,65.2%,85.8%,90.2%
"C[As](C)SC[C@H](NC(=O)CC[C@H](N)C(=O)O)C(=O)NCC(=O)O [Darinaparsin] + Oc1nc(-c2ccc(C(F)(F)F)cc2)nc2c1CSCC2 [XAV939] (first compound 0.4 µM, partner dose 2 µM)",39.5%,69.5%,12.8%,49.5%,71.2%,125%,128%,79.3%,23.8%
"Cn1nnc2c(C(N)=O)ncn2c1=O [temozolomide] + C/C(O)=C(\C#N)C(=O)Nc1cc(Br)ccc1Br [LFM-A13] (first compound 2 µM, partner dose 2 µM)",46.1%,105%,193%,197%,75.4%,179%,95.8%,153%,41.1%
"CO[C@@H]1[C@H](N(C)C(=O)c2ccccc2)C[C@H]2O[C@]1(C)n1c3ccccc3c3c4c(c5c6ccccc6n2c5c31)C(=O)NC4 [Midostaurin] + O=C(Oc1ccc([N+](=O)[O-])cc1)N1CCC(C(O)(c2ccc3c(c2)OCO3)c2ccc3c(c2)OCO3)CC1 [JZL184] (first compound 0.08 µM, partner dose 1 µM)",99.3%,60.1%,81.8%,128%,51.2%,114%,86.3%,77.7%,84.6%
"O=C(Nc1ccccc1)c1cc([N+](=O)[O-])ccc1Cl + C/C(O)=C(\C#N)C(=O)Nc1cc(Br)ccc1Br [LFM-A13] (first compound 2 µM, partner dose 2 µM)",92.1%,54.3%,109%,100%,52.4%,135%,57%,85.8%,1140%
"COc1ccc(COc2ccc(Cc3cnc(N)nc3N)cc2OC)cc1 + Cc1cc(SCc2sc(-c3ccc(C(F)(F)F)c(F)c3)nc2C)ccc1OCC(=O)O [GW0742] (first compound 1 µM, partner dose 2 µM)",48%,168%,117%,109%,41.2%,69.4%,42.4%,157%,120%
"Cc1cc(N2CCOCC2)cc2[nH]c(-c3c(NC[C@@H](O)c4cccc(Cl)c4)cc[nH]c3=O)nc12 + O=C(Oc1ccc([N+](=O)[O-])cc1)N1CCC(C(O)(c2ccc3c(c2)OCO3)c2ccc3c(c2)OCO3)CC1 [JZL184] (first compound 0.2 µM, partner dose 1 µM)",97.5%,247%,190%,116%,98.3%,85.2%,44.8%,173%,84.7%
"COC(=O)c1sccc1S(=O)(=O)Nc1ccc(Nc2ccccc2)cc1OC + Cc1cc(SCc2sc(-c3ccc(C(F)(F)F)c(F)c3)nc2C)ccc1OCC(=O)O [GW0742] (first compound 1 µM, partner dose 2 µM)",48.9%,60.6%,42.3%,115%,90.2%,40.3%,43.8%,73%,69.5%
"O=C(Nc1ccccc1)c1cc([N+](=O)[O-])ccc1Cl + O=C(Oc1ccc([N+](=O)[O-])cc1)N1CCC(C(O)(c2ccc3c(c2)OCO3)c2ccc3c(c2)OCO3)CC1 [JZL184] (first compound 2 µM, partner dose 1 µM)",51.7%,65.7%,72.6%,80.8%,81.8%,99.8%,200%,75.3%,77.4%
"Cc1cc(SCc2sc(-c3ccc(C(F)(F)F)c(F)c3)nc2C)ccc1OCC(=O)O + COc1cc(N2CCC(N3CCN(C)CC3)CC2)ccc1Nc1ncc(Cl)c(Nc2ccccc2S(=O)(=O)C(C)C)n1 [NVP-TAE684] (first compound 2 µM, partner dose 0.08 µM)",196%,35.3%,55%,98.9%,98.5%,211%,253%,80.6%,35.6%
"COc1ccc(COc2ccc(Cc3cnc(N)nc3N)cc2OC)cc1 + C/C(O)=C(\C#N)C(=O)Nc1cc(Br)ccc1Br [LFM-A13] (first compound 1 µM, partner dose 2 µM)",309%,109%,164%,51.8%,57.7%,96.6%,174%,93.4%,96.5%
"O=S(=O)(c1ccccc1)N(CC(F)(F)F)c1ccc(C(O)(C(F)(F)F)C(F)(F)F)cc1 + O=C(Oc1ccc([N+](=O)[O-])cc1)N1CCC(C(O)(c2ccc3c(c2)OCO3)c2ccc3c(c2)OCO3)CC1 [JZL184] (first compound 1.4 µM, partner dose 1 µM)",107%,77.5%,94.8%,78.2%,107%,88.4%,201%,42.8%,49.7%
"CN(C)S(=O)(=O)c1ccc2c(c1)/C(=C/c1cc3c([nH]1)CCCC3)C(=O)N2 + O=C(Oc1ccc([N+](=O)[O-])cc1)N1CCC(C(O)(c2ccc3c(c2)OCO3)c2ccc3c(c2)OCO3)CC1 [JZL184] (first compound 0.4 µM, partner dose 1 µM)",79.3%,119%,111%,102%,208%,83.6%,183%,187%,46.8%
"O=C(O)c1ccc(-c2c[nH]c3ncc(-c4ccccc4)cc23)cc1C1CCCC1 + C/C(O)=C(\C#N)C(=O)Nc1cc(Br)ccc1Br [LFM-A13] (first compound 0.16 µM, partner dose 2 µM)",182%,126%,63.5%,68.1%,116%,87.5%,194%,251%,160%
"Cn1nnc2c(C(N)=O)ncn2c1=O [temozolomide] + Cc1cc(SCc2sc(-c3ccc(C(F)(F)F)c(F)c3)nc2C)ccc1OCC(=O)O [GW0742] (first compound 2 µM, partner dose 2 µM)",76.5%,66.1%,29.1%,113%,83.4%,33.5%,47.2%,71.8%,61.2%
"CC1(C)NC(=O)N(c2ccc([N+](=O)[O-])c(C(F)(F)F)c2)C1=O [nilutamide] + Cc1cc(SCc2sc(-c3ccc(C(F)(F)F)c(F)c3)nc2C)ccc1OCC(=O)O [GW0742] (first compound 1 µM, partner dose 2 µM)",190%,168%,84.7%,138%,30.9%,61.2%,41.9%,87.9%,197%
"Cc1cc(N2CCOCC2)cc2[nH]c(-c3c(NC[C@@H](O)c4cccc(Cl)c4)cc[nH]c3=O)nc12 + Cc1cc(SCc2sc(-c3ccc(C(F)(F)F)c(F)c3)nc2C)ccc1OCC(=O)O [GW0742] (first compound 0.2 µM, partner dose 2 µM)",44.9%,102%,293%,91.4%,148%,120%,48.9%,98.5%,27.9%
"Cc1cc(SCc2sc(-c3ccc(C(F)(F)F)c(F)c3)nc2C)ccc1OCC(=O)O + Oc1cc(-c2nc(-c3ccccc3)[nH]c2-c2ccncc2)ccc1Cl [L779450] (first compound 2 µM, partner dose 0.2 µM)",120%,132%,45.2%,163%,324%,192%,63%,176%,27.4%

# Record cards (already shown). Order of values: cleaved PARP positive nuclei fraction [1] | cleaved PARP positive nuclei fraction [2] | cleaved PARP positive nuclei fraction [3] | cleaved PARP positive nuclei fraction [4] | cleaved PARP positive nuclei fraction [5] | cleaved PARP positive nuclei fraction [6] | cleaved PARP positive nuclei fraction [7] | cleaved PARP positive nuclei fraction [8] | cleaved PARP positive nuclei fraction [9]
# O=C(Nc1ccccc1)c1cc([N+](=O)[O-])ccc1Cl + C/C(O)=C(\C#N)C(=O)Nc1cc(Br)ccc1Br [LFM-A13] (first compound 2 µM, partner dose 2 µM) is listed with 92.1% | 54.3% | 109% | 100% | 52.4% | 135% | 57% | 85.8% | 1140%
# COC(=O)c1sccc1S(=O)(=O)Nc1ccc(Nc2ccccc2)cc1OC + Cc1cc(SCc2sc(-c3ccc(C(F)(F)F)c(F)c3)nc2C)ccc1OCC(=O)O [GW0742] (first compound 1 µM, partner dose 2 µM) is listed with 48.9% | 60.6% | 42.3% | 115% | 90.2% | 40.3% | 43.8% | 73% | 69.5%
